# The other results are listed elsewhere or left out.
# By UniProt entry, the sequences of proteins in these tests, tags left out. Where a name states a change or a piece, a line headed by the entry shows the natural chain unless it says otherwise.
# UniProt P00480: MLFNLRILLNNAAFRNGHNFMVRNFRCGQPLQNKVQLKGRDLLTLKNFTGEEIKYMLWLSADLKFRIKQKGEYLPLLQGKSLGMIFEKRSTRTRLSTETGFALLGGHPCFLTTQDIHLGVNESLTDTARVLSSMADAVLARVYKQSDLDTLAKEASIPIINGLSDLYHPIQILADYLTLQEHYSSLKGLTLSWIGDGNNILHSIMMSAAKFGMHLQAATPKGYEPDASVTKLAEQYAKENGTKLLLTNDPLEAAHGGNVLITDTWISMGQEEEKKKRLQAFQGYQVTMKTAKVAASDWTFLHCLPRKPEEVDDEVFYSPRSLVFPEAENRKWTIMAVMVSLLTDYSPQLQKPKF
# UniProt Q01968: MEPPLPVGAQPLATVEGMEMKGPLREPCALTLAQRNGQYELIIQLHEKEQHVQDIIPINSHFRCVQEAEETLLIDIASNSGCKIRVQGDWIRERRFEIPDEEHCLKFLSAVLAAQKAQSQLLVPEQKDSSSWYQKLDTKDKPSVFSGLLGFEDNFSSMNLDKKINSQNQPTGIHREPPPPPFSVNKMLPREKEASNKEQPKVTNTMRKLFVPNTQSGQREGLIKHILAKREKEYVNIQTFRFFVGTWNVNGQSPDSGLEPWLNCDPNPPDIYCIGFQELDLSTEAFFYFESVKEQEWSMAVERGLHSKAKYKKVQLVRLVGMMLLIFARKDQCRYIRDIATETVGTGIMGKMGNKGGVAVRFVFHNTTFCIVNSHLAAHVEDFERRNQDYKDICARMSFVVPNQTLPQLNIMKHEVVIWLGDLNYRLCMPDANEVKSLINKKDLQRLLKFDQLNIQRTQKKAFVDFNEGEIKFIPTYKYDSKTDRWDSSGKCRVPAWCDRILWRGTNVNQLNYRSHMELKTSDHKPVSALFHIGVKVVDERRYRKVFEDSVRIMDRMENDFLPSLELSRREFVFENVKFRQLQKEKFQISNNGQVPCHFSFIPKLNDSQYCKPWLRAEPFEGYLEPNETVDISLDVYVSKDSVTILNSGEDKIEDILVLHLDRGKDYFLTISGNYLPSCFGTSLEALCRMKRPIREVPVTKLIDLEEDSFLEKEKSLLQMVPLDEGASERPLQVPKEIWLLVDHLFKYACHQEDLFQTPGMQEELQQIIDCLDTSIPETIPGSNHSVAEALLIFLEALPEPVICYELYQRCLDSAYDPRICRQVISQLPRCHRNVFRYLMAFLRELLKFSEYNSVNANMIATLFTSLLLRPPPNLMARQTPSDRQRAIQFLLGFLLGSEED
# UniProt Q99567: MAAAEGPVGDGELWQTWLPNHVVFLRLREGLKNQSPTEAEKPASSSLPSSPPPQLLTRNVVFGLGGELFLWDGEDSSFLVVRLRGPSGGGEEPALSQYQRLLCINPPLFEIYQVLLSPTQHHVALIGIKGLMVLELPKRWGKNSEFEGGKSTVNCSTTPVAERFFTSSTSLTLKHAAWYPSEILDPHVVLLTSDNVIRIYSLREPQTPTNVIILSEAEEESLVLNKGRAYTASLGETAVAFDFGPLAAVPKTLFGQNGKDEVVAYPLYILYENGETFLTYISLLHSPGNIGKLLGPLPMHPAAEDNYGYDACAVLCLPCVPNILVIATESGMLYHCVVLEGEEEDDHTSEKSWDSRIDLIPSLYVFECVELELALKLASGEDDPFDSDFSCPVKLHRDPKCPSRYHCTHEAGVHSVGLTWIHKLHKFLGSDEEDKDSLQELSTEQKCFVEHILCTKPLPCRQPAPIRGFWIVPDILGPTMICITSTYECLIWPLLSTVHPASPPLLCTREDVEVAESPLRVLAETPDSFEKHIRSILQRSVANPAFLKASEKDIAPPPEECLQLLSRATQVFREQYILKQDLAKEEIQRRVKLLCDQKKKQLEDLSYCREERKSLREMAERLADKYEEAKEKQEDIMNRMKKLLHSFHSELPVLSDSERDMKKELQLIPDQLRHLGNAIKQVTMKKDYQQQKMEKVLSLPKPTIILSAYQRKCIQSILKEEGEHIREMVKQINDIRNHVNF
# UniProt Q9NTK5, whole entry, looked up: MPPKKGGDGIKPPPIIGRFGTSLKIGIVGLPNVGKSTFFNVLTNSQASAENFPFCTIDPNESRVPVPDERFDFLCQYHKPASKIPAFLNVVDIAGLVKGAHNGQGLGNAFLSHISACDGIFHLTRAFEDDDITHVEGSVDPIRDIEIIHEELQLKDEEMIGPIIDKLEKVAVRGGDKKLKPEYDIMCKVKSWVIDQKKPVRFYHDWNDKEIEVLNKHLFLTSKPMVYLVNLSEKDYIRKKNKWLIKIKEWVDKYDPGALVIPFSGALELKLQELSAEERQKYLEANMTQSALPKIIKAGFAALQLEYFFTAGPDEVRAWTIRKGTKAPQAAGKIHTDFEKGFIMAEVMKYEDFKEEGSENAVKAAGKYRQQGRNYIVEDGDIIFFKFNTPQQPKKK
# UniProt P13674: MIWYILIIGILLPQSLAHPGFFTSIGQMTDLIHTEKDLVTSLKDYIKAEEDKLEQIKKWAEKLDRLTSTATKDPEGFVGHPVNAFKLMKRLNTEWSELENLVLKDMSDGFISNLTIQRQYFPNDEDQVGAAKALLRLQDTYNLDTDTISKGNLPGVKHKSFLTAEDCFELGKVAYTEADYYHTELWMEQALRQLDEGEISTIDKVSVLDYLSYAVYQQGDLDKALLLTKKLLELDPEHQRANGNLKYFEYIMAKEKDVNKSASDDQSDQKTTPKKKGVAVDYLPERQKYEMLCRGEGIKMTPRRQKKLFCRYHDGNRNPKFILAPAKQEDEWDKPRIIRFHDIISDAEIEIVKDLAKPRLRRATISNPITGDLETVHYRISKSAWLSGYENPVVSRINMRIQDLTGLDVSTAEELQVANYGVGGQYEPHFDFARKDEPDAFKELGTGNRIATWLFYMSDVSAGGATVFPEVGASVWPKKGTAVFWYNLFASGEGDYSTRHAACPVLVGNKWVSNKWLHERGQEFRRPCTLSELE
# UniProt P04181: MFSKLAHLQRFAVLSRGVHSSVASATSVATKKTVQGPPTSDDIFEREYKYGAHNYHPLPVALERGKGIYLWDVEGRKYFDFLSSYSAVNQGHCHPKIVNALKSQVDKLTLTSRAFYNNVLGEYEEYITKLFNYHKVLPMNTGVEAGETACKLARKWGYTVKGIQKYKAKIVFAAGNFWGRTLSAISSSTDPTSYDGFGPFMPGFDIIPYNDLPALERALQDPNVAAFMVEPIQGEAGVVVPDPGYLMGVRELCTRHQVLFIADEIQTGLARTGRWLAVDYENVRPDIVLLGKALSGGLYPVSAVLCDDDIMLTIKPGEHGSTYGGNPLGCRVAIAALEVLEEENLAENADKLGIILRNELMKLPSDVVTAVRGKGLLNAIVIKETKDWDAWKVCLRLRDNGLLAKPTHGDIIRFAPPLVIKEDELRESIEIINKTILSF
# UniProt Q9UNF0: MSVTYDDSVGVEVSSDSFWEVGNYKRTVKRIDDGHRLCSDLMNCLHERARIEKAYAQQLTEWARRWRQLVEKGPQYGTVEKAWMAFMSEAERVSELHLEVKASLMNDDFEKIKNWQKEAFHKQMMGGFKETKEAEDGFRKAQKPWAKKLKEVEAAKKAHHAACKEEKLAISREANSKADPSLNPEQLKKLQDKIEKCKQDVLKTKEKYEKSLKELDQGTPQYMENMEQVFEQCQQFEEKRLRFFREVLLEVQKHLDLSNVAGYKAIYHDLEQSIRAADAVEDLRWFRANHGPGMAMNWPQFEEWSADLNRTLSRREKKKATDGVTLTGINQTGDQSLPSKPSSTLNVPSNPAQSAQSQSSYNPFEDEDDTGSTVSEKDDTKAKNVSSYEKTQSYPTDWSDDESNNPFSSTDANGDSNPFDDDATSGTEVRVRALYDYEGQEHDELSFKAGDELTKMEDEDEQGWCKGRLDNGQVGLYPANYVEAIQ
# UniProt O15460: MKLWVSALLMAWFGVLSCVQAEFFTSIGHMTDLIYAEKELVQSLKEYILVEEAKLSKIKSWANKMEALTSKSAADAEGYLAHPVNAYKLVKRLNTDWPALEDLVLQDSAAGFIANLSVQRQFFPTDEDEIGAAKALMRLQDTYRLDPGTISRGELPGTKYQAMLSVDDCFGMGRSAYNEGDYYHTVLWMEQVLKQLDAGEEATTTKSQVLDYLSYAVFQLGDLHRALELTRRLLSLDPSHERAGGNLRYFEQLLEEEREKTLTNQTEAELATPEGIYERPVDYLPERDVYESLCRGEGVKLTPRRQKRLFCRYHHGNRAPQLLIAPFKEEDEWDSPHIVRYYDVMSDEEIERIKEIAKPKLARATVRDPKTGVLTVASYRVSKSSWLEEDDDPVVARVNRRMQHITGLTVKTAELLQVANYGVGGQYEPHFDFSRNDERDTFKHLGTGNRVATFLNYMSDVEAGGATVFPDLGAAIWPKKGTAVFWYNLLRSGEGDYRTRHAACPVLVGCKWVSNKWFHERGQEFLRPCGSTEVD
# UniProt Q9BY11: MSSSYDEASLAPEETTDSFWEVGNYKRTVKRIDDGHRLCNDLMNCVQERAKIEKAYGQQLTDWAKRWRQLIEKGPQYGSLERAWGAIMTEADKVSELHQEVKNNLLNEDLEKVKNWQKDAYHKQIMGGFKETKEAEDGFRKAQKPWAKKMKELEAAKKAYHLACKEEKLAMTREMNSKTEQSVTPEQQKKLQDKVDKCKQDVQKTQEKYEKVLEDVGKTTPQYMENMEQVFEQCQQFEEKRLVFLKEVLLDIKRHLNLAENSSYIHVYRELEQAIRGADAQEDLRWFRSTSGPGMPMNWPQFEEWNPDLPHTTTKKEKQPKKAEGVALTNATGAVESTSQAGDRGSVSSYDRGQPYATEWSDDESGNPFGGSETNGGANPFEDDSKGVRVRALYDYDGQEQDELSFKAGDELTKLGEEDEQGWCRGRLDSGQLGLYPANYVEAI
# UniProt Q9Y5N6: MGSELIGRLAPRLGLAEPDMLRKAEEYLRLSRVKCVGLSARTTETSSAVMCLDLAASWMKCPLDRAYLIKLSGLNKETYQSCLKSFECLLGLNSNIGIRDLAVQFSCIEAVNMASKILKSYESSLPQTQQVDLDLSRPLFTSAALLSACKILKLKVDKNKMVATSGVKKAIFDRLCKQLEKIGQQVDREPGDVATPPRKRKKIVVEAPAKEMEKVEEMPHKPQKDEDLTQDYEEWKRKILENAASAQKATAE
# UniProt Q8NFH5: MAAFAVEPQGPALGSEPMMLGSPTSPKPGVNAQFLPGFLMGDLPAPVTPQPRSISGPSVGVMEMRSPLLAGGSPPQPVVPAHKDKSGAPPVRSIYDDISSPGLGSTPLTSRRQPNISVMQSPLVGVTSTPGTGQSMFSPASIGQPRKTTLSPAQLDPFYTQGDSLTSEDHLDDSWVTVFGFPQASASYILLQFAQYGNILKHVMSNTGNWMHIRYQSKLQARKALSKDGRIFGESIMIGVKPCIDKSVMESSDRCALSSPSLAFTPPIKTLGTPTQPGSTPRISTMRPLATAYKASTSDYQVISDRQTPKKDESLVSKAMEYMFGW
# Tests used:
# Assay in all cases: log2 fold change, soluble protein after heating vs DMSO (PISA); higher = thermal stabilisation; K562 lysate, 10 uM; active = over 0.2 and 3.5 SD of the protein, either way, in both replicates (recomputed)
# [1] = compound: CCCS(=O)(=O)Nc1ccc(F)c(C(=O)c2c[nH]c3ncc(-c4ccc(Cl)cc4)cc23)c1F [vemurafenib]
# Procedure, shortened: (§1)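 Quantification was by TMTpro 16plex LC-MS/MS with equalised channel sums, applied to the supernatant after 21,000xg for 90 min. Samples were crude K562 extract at 1 mg/mL protein in PBS pH 7.4 with 1 mM MgCl2, treated with 10 μM compound for 30 min, heated for 3 min across 48°C-58°C, pooled and brought to 0.5% NP-40 at 4°C. Values are log-two fold changes in thermal stability relative to solvent controls, from duplicates.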
# [2] = compound: CCCS(=O)(=O)Nc1ccc(F)c(C(=O)c2c[nH]c3ncc(Cl)cc23)c1F
# Procedure, shortened: as §1
# [3] = compound: CCN(CCCOc1ccc2c(Nc3cc(CC(=O)Nc4cccc(F)c4)[nH]n3)ncnc2c1)CCOP(=O)(O)O [barasertib]
# Procedure, shortened: as §1
# [4] = compound: CC[C@@H]1C(=O)N(C)c2cnc(Nc3ccc(C(=O)NC4CCN(C)CC4)cc3OC)nc2N1C1CCCC1
# Procedure, shortened: as §1
# [5] = compound: CC[C@@H]1C(=O)N(C)c2cnc(Nc3ccc(C(=O)N[C@H]4CC[C@H](N5CCN(CC6CC6)CC5)CC4)cc3OC)nc2N1C(C)C [volasertib]
# Procedure, shortened: as §1
# [6] = compound: CCn1c(C(=O)N(C2CC2)C2CC2)cc2c3c(ncn3C)c(Nc3cc(C)n(C)n3)nc21
# Procedure, shortened: as §1
# [7] = compound: CCn1cc(-c2ccnc3[nH]c(-c4cccc(CN(C)C)c4)cc23)c(-c2ccc(NC(=O)N(C)C)cc2)n1
# Procedure, shortened: as §1
# [8] = compound: CN1CCC(CNc2ccc3ncc(-c4cccc(OC(F)(F)F)c4)n3n2)CC1
# Procedure, shortened: as §1
# [9] = compound: CN1CCN(CCOc2cc(OC3CCOCC3)c3c(Nc4c(Cl)ccc5c4OCO5)ncnc3c2)CC1 [saracatinib]
# Procedure, shortened: as §1
# [10] = compound: CN1CCN(c2nc(C3=C(c4c[nH]c5ccccc45)C(=O)NC3=O)c3ccccc3n2)CC1 [sotrastaurin]
# Procedure, shortened: as §1
# [11] = compound: CN1CC[C@H](c2c(O)cc(O)c3c(=O)cc(-c4ccccc4Cl)oc23)[C@H](O)C1 [alvocidib]
# Procedure, shortened: as §1
# [12] = compound: CN1CCc2c(c3ccccc3n2Cc2ccc(C(=O)NO)cc2)C1 [Tubastatin A]
# Procedure, shortened: as §1
# [13] = compound: CNC(=O)C1=CC=CC=C1NC2=NC(=NC=C2Cl)NC3=C(C=C(C=C3)N4CCOCC4)OC
# Procedure, shortened: as §1
# [14] = compound: CNC(=O)c1ccc(Nc2ncc(C(F)(F)F)c(NCc3nccnc3N(C)S(C)(=O)=O)n2)cc1 [defactinib]
# Procedure, shortened: as §1
# [15] = compound: CNc1nc(-c2ccc3c(N)n[nH]c3c2)cc(N2C[C@@H](C(=O)NC3CCCCC3)CC[C@H]2C)n1
# Procedure, shortened: as §1
# [16] = compound: COC(=O)N[C@@H](C)CNc1nccc(-c2cn(C(C)C)nc2-c2cc(Cl)cc(NS(C)(=O)=O)c2F)n1 [encorafenib]
# Procedure, shortened: as §1
# [17] = compound: COC(=O)[C@H](CCSC)NC(=O)C1=C(C=C(C=C1)NC[C@H](CS)N)C2=CC=CC=C2
# Procedure, shortened: as §1
# [18] = compound: COc1cc(Nc2ncc3c(n2)-c2ccc(Cl)cc2C(c2c(F)cccc2OC)=NC3)ccc1C(=O)O [alisertib]
# Procedure, shortened: as §1
# [19] = compound: COc1cc2nc(-c3cc(F)ccc3O)nc(N[C@@H]3CNC[C@H]3C(C)(C)O)c2cc1OC
# Procedure, shortened: as §1
# [20] = compound: COc1cc2ncnc(Nc3ccc(F)c(Cl)c3)c2cc1OCCCN1CCOCC1 [gefitinib]
# Procedure, shortened: as §1
Target,log2 fold change [1],log2 fold change [2],log2 fold change [3],log2 fold change [4],log2 fold change [5],log2 fold change [6],log2 fold change [7],log2 fold change [8],log2 fold change [9],log2 fold change [10],log2 fold change [11],log2 fold change [12],log2 fold change [13],log2 fold change [14],log2 fold change [15],log2 fold change [16],log2 fold change [17],log2 fold change [18],log2 fold change [19],log2 fold change [20]
OTC (UniProt P00480),inactive: 0.072,inactive: -0.063,inactive: 0.063,inactive: -0.246,inactive: 0.018,inactive: -0.035,inactive: -1.43,inactive: 0.371,inactive: 0.012,inactive: 0.282,active: -1.18,inactive: 0.148,inactive: -0.134,inactive: -0.188,inactive: -0.152,inactive: -0.047,inactive: -0.018,inactive: 0.218,inactive: -0.023,inactive: 0.184
OCRL (UniProt Q01968),inactive: 0.168,inactive: 0.014,inactive: 0.04,inactive: 0.018,inactive: -0.057,inactive: -0.032,inactive: -0.074,inactive: 0.049,inactive: 0.027,inactive: 0.019,inactive: -0.002,inactive: -0.105,inactive: 0.074,inactive: 0.123,inactive: -0.051,inactive: 0.045,inactive: -0.006,inactive: 0.016,inactive: -0.082,inactive: 0.049
NUP88 (UniProt Q99567),inactive: -0.019,inactive: -0.016,inactive: 0.061,inactive: 0.015,inactive: -0.035,inactive: 0.038,inactive: -0.052,inactive: 0.004,inactive: -0.005,inactive: -0.002,inactive: 0.003,inactive: 0.048,inactive: 0.006,inactive: 0.028,inactive: -0.016,inactive: 0.052,inactive: 0.007,inactive: 0.01,inactive: 0.024,inactive: 0.026
OLA1 (UniProt Q9NTK5),inactive: 0.025,inactive: 0.001,inactive: 0.012,inactive: -0.047,inactive: -0.029,inactive: 0.04,inactive: -0.135,inactive: 0.035,inactive: -0.003,inactive: 0.026,inactive: -0.002,inactive: -0.095,inactive: 0.019,inactive: -0.029,inactive: -0.02,inactive: 0.008,inactive: -0.004,inactive: 0.017,inactive: 0.011,inactive: -0.026
P4HA1 (UniProt P13674),inactive: 0.019,inactive: 0.016,inactive: 0.019,inactive: -0.006,inactive: -0.019,inactive: -0.005,inactive: 0.014,inactive: 0,inactive: 0.017,inactive: -0.007,inactive: 0,inactive: -0.018,inactive: 0.053,inactive: 0.03,inactive: 0.001,inactive: 0.015,inactive: 0.012,inactive: 0.004,inactive: 0.024,inactive: 0.014
OAT (UniProt P04181),inactive: 0.066,inactive: 0.003,inactive: -0.012,inactive: -0.019,inactive: -0.014,inactive: -0.006,inactive: -0.119,inactive: 0.014,inactive: -0.004,inactive: -0.024,inactive: -0.023,inactive: -0.016,inactive: -0.03,inactive: -0.016,inactive: -0.023,inactive: -0.022,inactive: 0.091,inactive: 0.036,inactive: 0.006,inactive: 0.008
PACSIN2 (UniProt Q9UNF0),inactive: -0.017,inactive: 0.008,inactive: 0.021,inactive: -0.015,inactive: -0.007,inactive: 0.054,inactive: 0.05,inactive: -0.043,inactive: -0.013,inactive: -0.015,inactive: 0.023,inactive: -0.004,inactive: 0.028,inactive: -0.004,inactive: -0.021,inactive: -0.004,inactive: 0.17,inactive: -0.003,inactive: -0.012,inactive: 0.016
P4HA2 (UniProt O15460),inactive: 0.007,inactive: -0.085,inactive: 0.11,inactive: 0.055,inactive: 0.06,inactive: -0.075,inactive: 0.061,inactive: -0.065,inactive: 0.052,inactive: -0.009,inactive: -0.008,inactive: 0.072,inactive: 0.042,inactive: -0.045,inactive: -0.055,inactive: 0.028,inactive: -0.056,,inactive: -0.039,
PACSIN1 (UniProt Q9BY11),inactive: -0.021,inactive: -0.051,inactive: -0.008,inactive: 0.013,inactive: 0.033,inactive: 0.014,inactive: 0.014,inactive: 0.032,inactive: 0.037,,inactive: -0.097,inactive: 0.02,inactive: 0.025,inactive: -0.001,inactive: 0.041,inactive: 0.077,inactive: -0.053,inactive: 0.005,inactive: 0.014,inactive: 0.015
ORC6 (UniProt Q9Y5N6),inactive: -0.166,,inactive: 0.003,inactive: 0.098,,inactive: 0.014,inactive: 0.226,inactive: -0.097,inactive: 0.036,inactive: -0.018,inactive: 0.097,inactive: -0.055,inactive: 0.048,inactive: 0.004,inactive: 0.006,inactive: 0.026,inactive: 0.005,inactive: -0.016,,inactive: 0.02
OCIAD1 (UniProt D6RDK6),inactive: 0.15,inactive: -0.039,,inactive: -0.048,inactive: 0.019,,,,,,,,,inactive: -0.119,,inactive: 0.014,inactive: 0.029,inactive: 0.004,inactive: 0.075,inactive: 0.045
NUP35 (UniProt Q8NFH5),inactive: 0.143,inactive: -0.016,inactive: -0.006,inactive: 0.162,inactive: -0.052,inactive: 0.038,inactive: 0.005,inactive: -0.043,,inactive: -0.07,inactive: 0.068,inactive: -0.074,,inactive: -0.381,,inactive: -0.166,inactive: -0.129,inactive: -0.045,inactive: -0.064,inactive: -0.228

# Quoted at random: 2 records from the list, in no set order.
Target,log2 fold change [1],log2 fold change [2],log2 fold change [3],log2 fold change [4],log2 fold change [5],log2 fold change [6],log2 fold change [7],log2 fold change [8],log2 fold change [9],log2 fold change [10],log2 fold change [11],log2 fold change [12],log2 fold change [13],log2 fold change [14],log2 fold change [15],log2 fold change [16],log2 fold change [17],log2 fold change [18],log2 fold change [19],log2 fold change [20]
OLA1 (UniProt Q9NTK5),inactive: 0.025,inactive: 0.001,inactive: 0.012,inactive: -0.047,inactive: -0.029,inactive: 0.04,inactive: -0.135,inactive: 0.035,inactive: -0.003,inactive: 0.026,inactive: -0.002,inactive: -0.095,inactive: 0.019,inactive: -0.029,inactive: -0.02,inactive: 0.008,inactive: -0.004,inactive: 0.017,inactive: 0.011,inactive: -0.026
PACSIN2 (UniProt Q9UNF0),inactive: -0.017,inactive: 0.008,inactive: 0.021,inactive: -0.015,inactive: -0.007,inactive: 0.054,inactive: 0.05,inactive: -0.043,inactive: -0.013,inactive: -0.015,inactive: 0.023,inactive: -0.004,inactive: 0.028,inactive: -0.004,inactive: -0.021,inactive: -0.004,inactive: 0.17,inactive: -0.003,inactive: -0.012,inactive: 0.016

# Reference: the supplement of paper PMC10849652
